Assay results taken from patent US20230416357A1 (UCB, published 2023).
No constants are given. Whether binding was seen depends on the method and setting. Some entries that bind do so weakly or less than the wild type.

Biological target: T1, Human IL22 (human, UniProt Q9GZX6 34-179)
T1 sequence: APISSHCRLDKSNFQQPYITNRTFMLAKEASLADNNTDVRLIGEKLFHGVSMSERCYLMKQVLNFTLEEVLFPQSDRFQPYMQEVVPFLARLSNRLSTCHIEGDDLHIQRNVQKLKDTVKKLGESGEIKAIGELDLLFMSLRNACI
Experiment: SPR Biacore T200; IL22 held by captured Fezakinumab

B1: IL22BP (receptor, UniProt Q969J5-2 22-231, looked up)
chain: TQSTHESLKPQRVQFQSRNFHNILQWQPGRALTGNSSVYFVQYKIYGQRQWKNKEDCWGTQELSCDLTSETSDIQEPYYGRVRAASAGSYSEWSMTPRFTPWWETKIDPPVMNITQVNGSLLVILHAPNLPYRYQKEKNVSIEDYYELLYRVFIINNSLEKEQKVYEGAHRAVEIEALTPHSSYCVVAEIYQPMLDRRSQRSEERCVEIP
binding: binds
